Source: patent US20220110902A1, “Methods of treating amyloid-beta peptide diseases” (Ecole Polytechnique Federale de Lausanne, priority 2016, published 2022)
At least one structure is not confirmed: it was looked up by name or label, or the drawing left a doubt.

Key:
[1] = tested on: GMC101 worms; assay: Transcript analysis of the MSR and other stress pathways in GMC101 worms; type: in vivo, C. elegans; conditions: GMC101, day 1 of adulthood, dox 15 μg/mL, NR 1 mM
Method: C. elegans: A total of ˜3000 worms per condition, divided in 3 biological replicates, was recovered in M9 buffer from NGM plates and lysed in the TriPure RNA reagent. Each experiment was repeated twice. Total RNA was transcribed to cDNA using QuantiTect Reverse Transcription Kit (Qiagen). Expression of selected genes was analyzed using the LightCycler480 system (Roche) and LightCycler® 480 SYBR Green I Master reagent (Roche). For C. elegans, 2 housekeeping genes were used to normalize the expression data, namely actin (act-1) and peroxisomal membrane protein 3 (pmp-3).
atfs-1p::atfs-1 expression vector was created by amplifying 1488 bp sequence upstream from the transcription start site of atfs-1 coding region by using worm genomic DNA for the promoter region. The PCR product was digested with PciI and AgeI and ligated into the pPD30.38 expression vector containing gfp coding sequence cloned between inserted AgeI and NotI restriction sites. The atfs-1 coding sequence (CDS) was instead amplified using C. elegans cDNA, and the PCR product was inserted into pPD30.38 downstream of the promoter region, between AgeI and NheI restriction sites. The correctness of the atfs-1p::atfs-1 construct was assessed by sequencing with the indicated pPD30.38 and atfs-1 seq. primers. Two independent GMC101 lines (AUW9 and AUW10), and one CL2122 strain (AUW11) carrying atfs-1p::atfs-1 transgene as extrachromosomal array were analyzed in the study. Injection marker myo-2p::gfp was cloned by amplifying 1179 bp sequence upstream from the transcription start site of myo-2 coding region by using C. elegans genomic DNA. The PCR product was digested with PciI and AgeI and ligated into the pPD30.38 expression vector containing atfs-1::gfp to replace atfs-1 promoter sequence between PciI and AgeI restriction sites. All transgenic strains were created by using microinjection. […] The deriving F1 worms were shifted from 20° C. to 25° C. at the L4 stage to induce amyloid accumulation and paralysis, and phenotypes assessed over time as indicated. […]

[2] = tested on: SH-SY5Y(APPSwe) cells; assay: Western-blot and transcript analysis in SH-SY5Y(APPSwe) cells; type: cell-based, human; conditions: dox 10 μg/mL; for ratio of nDNA- (ATP5A, UQCRC1) over mtDNA-encoded (MTCO1) OXPHOS proteins (mito-nuclear protein imbalance): Western-blot
Method: Human: Total RNA was extracted using guanidine-isothiocyanate lysis (PureLink, Ambion, Waltham, Mass.) from cortex samples, and RNA integrity and concentration was verified using Bioanalysis (Agilent, Santa Clara, Calif.). Samples were randomized based on diagnostic group and assayed in triplicate on a real-time PCR cycler (ABI 7500, Applied Biosystems, Foster City) in 96-well optical plates. qPCR was performed using Taqman hydrolysis probe primer sets (Applied Biosystems) specific for the following human transcripts: HSPA9, HSPD1, YMEIL1, DNM1L, BECN1, SQSTM1, PARK2, COX5A, CYC1. A primer set specific for human GAPDH was used as a control housekeeping transcript. For the APPSwe-expressing SH-SY5Y cell line, total RNA was extracted […] using TriPure RNA isolation reagent, and expression of selected transcripts was analyzed using the LightCycler480 system (Roche) and LightCycler® 480 SYBR Green I Master reagent (Roche). The GAPDH gene was used as housekeeping reference. The ddCT method was employed to determine relative levels of each amplicon. […] The SH-SY5Y neuroblastoma cell line expressing the APP Swedish K670N/M671L double mutation (APPSwe) was a kind gift of Prof. Cedazo-Minguez (Karolinska Institute, Sweden). Cells were grown in DMEM/F-12, supplemented with 10% fetal bovine serum (FBS, Gibco), GlutaMAX (100×, Gibco) and penicillin/streptomycin (1×, Gibco). Cells were selected in 4 μg/mL Geneticin® Selective Antibiotic (G418 Sulfate, Sigma) and grown for three generations before experiments with cells plated and passaged at 4×10^3 cells/ml and 60% confluence, respectively. Cells were cultured at 37° C. under a 5% CO2 atmosphere and tested for mycoplasma using Mycoprobe (#CUL001B, R&D systems) following the manufacturer's instructions. Cells were treated with 10 μg/mL dox, NR 1 or 3 mM, ISRIB 0.5 μM (Sigma), as indicated for 24 hours before cell harvesting or fixation. For the immunostaining, cells were fixed with 1× Formal-Fixx (Thermo Scientific) for 15 min. […]

For C[C@H]1c2cccc(O)c2C(=O)C2=C(O)[C@]3(O)C(=O)C(C(N)=O)=C(O)[C@@H](N(C)C)[C@@H]3[C@@H](O)[C@@H]21 [dox, doxycycline], the “daf-16 and daf-16 target gene transcripts” value [1] was “consistent induction of one daf-16 target, the mitochondrial superoxide dismutase sod-3”, the “UPR^er and HSR gene transcripts” value ([1]; AZD 0.3 μM) was “no perturbations” and the “MSR transcripts (UPR^mt, mitophagy and respiration genes)” value ([1]; AZD 300 nM) was “markedly induced the UPR^mt transcripts and increased the expression of mitophagy and respiration genes”. For the same molecule, the MSR transcript levels ([2]; 24 h, NR 1 mM) was “induction of components of the MSR transcript signature”, the “ratio of nDNA- (ATP5A, UQCRC1) over mtDNA-encoded (MTCO1) OXPHOS proteins (mito-nuclear protein imbalance)” value [2] was “increases” and the “ratio of nDNA- (ATP5A, UQCRC1) over mtDNA-encoded (MTCO1) OXPHOS proteins (mito-nuclear protein imbalance)” value ([2]; listed as Dox) was “mito-nuclear protein imbalance”.
